Out of some 300,000 compounds screened, about 5,400 (1.8%) were called active. The inconclusive results got no clear call from the source; some entries with a clear call stand among them for comparison. Calls come from the whole dose curve; tested in HEK293 cells. A potency beside an inconclusive call is a rough fit, not a confirmed value.
Assay: qHTS for inhibitors of binding or entry into cells for Marburg Virus
Settings: Marburg virus pseudotyped entry inhibition, cell reporter; activity change, negative = inhibition: at 37.8 µM (top of the series) unless noted
% is set by controls: 0 for no effect and ±100 for the full control effect; potency is the fitted concentration of half-maximal effect.

Row | SMILES | Potency | activity change, negative = inhibition
1 | CCc1ccccc1OCCCCCNCCO | inconclusive: 29.1 µM [inhibitor, single point] | 
2 | COc1cccc(CO[C@H]2C=C[C@@H](c3ccccc3)O[C@H]2CBr)c1 | inconclusive: 0.003 µM [activator, full curve, poor fit] | 
3 | C=CCn1c(SCC(=O)NC2CCS(=O)(=O)C2)nnc1-c1cc2c(s1)CCC(CC)C2 (centres undefined) |  | inactive: -27%
4 | CCc1ccc(C2NC(=S)NC3=C2C(=O)N(c2ccccc2OC)C(c2ccc(CC)cc2)N3)cc1 (centres undefined) |  | inactive: -7.43%
5 | CC1CCOC(c2coc3ccccc3c2=O)O1 (centres undefined) | inconclusive: 10 µM [activator, partial curve] | 
6 | COc1ccccc1OCCn1cc(/C=N/NC(=O)c2ccncc2)c2ccccc21 |  | inactive: 6.67%
7 | Nc1cccc2c(=O)c3ccccc3[nH]c12 | inconclusive: 35.5 µM [inhibitor, partial curve, poor fit] | 
8 | COc1cccc(C2=NN(C(=O)c3ccccc3)C(O)(C(F)(F)F)C2)c1 (centres undefined) | inconclusive: 29.1 µM [inhibitor, single point] | 
9 | COc1ccc(CCNC(=O)C(=O)NCC2CCCN2S(=O)(=O)c2cccs2)cc1 (centres undefined) | inconclusive: 2.51 µM [activator, partial curve, poor fit] | 
10 | Cc1cc(C)c(-c2csc(Cc3nc(-c4cc5ccccc5oc4=O)cs3)n2)cc1C | inconclusive: 3.55 µM [inhibitor, partial curve, poor fit] | 
11 | COc1ccc(OCc2nc(C#N)c(NCc3ccccc3Cl)o2)cc1 |  | inactive: 5% [at 46.1 µM]
12 | Fc1ccc(-c2csc3ncnc(N4CCc5ccccc5C4)c23)cc1 | inconclusive: 17.8 µM [inhibitor, single point] | 
13 | O=C(NCC1CCCN1S(=O)(=O)c1cccs1)c1ccc(Cl)cc1 (centres undefined) | inconclusive: 6.31 µM [inhibitor, partial curve, poor fit] | 
14 | Cc1nc2ccc(NC(=O)N3CCCCC3)cc2s1 | inconclusive: 10.3 µM [activator, single point] | 
15 | C/C(CC(=O)Nc1cccc(C(F)(F)F)c1)=N\NC(=O)C(=O)NCC(C)C | inconclusive: 10 µM [inhibitor, single point] | 
16 | Cc1cc(C(=O)c2ccccc2)c(NC(=O)CCl)s1 | active: 1 µM | 
17 | CCOc1cc(/C=N/Nc2nc(C)cc(=O)[nH]2)ccc1O | inconclusive: 35.5 µM [inhibitor, single point] | 
18 | CCCNC(=O)COCc1cc(-c2ccc3c(c2)OCO3)on1 | inconclusive: 7.08 µM [activator, full curve, poor fit] | 
19 | CC(=O)C1=C(C)N(Cc2ccco2)C(=O)N[C@@H]1c1ccccc1 | inconclusive: 0.0841 µM [activator, partial curve, poor fit] | 

From entry 16 as far as 17, copied from above:
Row | SMILES | Potency | activity change, negative = inhibition
16 | Cc1cc(C(=O)c2ccccc2)c(NC(=O)CCl)s1 | active: 1 µM | 
17 | CCOc1cc(/C=N/Nc2nc(C)cc(=O)[nH]2)ccc1O | inconclusive: 35.5 µM [inhibitor, single point] | 

Reference: PubChem BioAssay AID540276 (National Center for Advancing Translational Sciences (NCATS), 2011)
